The values below come from the supplement of paper PMC12595434, “Development of retinoid nuclear receptor pathway antagonists through targeting aldehyde dehydrogenase 1A3” (iScience, 2025).

Sequences of proteins named here, by UniProt entry; tags and fusion partners are left off. A change or cut given only in a name is not applied to a line headed by its entry.
UniProt Q5EBL8: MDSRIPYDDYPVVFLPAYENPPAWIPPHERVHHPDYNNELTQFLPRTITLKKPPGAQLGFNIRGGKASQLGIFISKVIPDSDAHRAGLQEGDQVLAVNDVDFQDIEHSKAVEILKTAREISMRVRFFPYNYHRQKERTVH
UniProt Q5HYI7: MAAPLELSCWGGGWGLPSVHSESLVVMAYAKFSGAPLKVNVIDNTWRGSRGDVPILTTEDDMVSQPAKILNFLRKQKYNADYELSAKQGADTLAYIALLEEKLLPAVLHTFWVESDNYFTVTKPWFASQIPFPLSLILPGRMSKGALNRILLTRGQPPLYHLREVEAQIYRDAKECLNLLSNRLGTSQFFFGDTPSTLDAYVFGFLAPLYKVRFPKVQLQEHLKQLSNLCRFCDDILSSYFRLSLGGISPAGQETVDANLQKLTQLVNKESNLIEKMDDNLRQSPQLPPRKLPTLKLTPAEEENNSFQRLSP
UniProt Q5VTB9: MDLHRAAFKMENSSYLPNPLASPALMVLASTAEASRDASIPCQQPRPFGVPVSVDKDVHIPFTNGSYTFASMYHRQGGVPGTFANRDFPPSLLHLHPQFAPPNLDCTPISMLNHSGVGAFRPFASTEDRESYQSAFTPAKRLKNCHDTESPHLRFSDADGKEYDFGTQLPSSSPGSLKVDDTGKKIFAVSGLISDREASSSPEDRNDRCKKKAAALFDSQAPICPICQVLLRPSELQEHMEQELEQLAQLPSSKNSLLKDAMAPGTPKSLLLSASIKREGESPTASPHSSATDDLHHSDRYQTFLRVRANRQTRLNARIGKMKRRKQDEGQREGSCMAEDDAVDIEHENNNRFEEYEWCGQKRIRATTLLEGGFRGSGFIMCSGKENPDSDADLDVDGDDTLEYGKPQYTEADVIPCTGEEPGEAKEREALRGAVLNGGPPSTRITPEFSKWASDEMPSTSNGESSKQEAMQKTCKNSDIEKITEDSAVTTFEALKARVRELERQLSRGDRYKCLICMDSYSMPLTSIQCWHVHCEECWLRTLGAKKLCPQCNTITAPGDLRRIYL
UniProt Q5SWX8: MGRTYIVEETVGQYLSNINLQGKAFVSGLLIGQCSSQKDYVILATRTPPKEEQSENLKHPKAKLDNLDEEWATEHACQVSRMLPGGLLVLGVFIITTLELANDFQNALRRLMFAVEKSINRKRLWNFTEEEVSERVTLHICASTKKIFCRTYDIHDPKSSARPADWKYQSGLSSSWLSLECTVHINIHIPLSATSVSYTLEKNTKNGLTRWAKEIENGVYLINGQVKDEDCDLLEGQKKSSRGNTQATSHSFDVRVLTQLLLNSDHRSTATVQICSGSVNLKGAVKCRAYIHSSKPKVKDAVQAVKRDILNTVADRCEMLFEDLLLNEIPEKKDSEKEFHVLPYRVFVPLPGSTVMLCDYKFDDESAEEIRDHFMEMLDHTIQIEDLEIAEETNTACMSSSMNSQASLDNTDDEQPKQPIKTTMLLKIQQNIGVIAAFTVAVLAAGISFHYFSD
UniProt Q5T013: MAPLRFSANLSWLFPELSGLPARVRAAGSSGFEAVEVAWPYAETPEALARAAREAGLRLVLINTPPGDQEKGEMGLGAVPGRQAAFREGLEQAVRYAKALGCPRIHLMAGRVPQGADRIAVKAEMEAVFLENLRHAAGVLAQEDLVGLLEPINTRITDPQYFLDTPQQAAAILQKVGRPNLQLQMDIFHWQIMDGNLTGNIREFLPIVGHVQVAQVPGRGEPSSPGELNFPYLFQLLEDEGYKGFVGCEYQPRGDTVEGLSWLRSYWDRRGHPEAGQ
UniProt Q6NUM9: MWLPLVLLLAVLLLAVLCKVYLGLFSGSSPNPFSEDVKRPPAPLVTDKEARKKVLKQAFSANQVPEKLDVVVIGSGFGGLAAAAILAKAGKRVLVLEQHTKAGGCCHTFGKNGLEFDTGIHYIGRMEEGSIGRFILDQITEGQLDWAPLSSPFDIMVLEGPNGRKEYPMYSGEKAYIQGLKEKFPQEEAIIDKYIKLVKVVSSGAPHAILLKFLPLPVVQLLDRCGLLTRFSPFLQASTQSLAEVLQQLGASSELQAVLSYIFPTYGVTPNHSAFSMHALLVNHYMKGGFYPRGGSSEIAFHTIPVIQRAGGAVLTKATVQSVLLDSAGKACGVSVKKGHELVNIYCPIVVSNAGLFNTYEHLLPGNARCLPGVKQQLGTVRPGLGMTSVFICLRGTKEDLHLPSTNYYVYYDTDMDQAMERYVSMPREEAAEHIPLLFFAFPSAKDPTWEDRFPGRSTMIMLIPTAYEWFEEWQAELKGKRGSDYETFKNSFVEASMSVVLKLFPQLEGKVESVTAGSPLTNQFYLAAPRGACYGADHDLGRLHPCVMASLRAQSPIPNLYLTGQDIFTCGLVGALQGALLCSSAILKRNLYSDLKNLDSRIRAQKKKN
UniProt Q5SVZ6: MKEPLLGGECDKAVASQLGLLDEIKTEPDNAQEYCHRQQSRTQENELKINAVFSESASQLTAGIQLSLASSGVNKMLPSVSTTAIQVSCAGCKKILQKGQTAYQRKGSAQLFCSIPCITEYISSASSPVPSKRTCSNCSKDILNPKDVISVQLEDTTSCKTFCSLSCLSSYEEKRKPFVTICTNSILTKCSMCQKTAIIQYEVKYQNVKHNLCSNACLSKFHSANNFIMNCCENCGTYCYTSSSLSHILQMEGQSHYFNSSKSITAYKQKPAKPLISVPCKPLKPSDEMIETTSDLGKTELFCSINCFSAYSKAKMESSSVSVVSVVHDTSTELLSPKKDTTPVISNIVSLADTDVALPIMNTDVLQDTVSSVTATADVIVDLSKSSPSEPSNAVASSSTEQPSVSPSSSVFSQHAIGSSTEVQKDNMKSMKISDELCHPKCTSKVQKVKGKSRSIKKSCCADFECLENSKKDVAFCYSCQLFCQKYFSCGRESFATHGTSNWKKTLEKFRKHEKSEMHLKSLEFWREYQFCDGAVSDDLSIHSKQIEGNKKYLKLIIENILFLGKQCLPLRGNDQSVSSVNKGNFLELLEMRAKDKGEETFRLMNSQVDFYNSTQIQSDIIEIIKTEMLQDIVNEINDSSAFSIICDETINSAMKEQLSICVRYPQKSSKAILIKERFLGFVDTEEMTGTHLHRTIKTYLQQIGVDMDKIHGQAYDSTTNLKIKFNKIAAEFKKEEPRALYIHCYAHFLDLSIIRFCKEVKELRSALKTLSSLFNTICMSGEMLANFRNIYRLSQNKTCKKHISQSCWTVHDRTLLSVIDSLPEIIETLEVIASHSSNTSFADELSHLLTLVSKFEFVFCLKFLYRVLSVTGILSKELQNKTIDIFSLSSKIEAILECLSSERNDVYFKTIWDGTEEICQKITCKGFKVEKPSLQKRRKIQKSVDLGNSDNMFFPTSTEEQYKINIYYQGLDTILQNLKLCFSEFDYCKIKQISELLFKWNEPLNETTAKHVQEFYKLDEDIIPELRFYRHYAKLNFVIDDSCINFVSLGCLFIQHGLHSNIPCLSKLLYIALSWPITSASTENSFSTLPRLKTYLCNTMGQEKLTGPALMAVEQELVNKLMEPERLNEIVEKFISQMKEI
UniProt Q6DD88: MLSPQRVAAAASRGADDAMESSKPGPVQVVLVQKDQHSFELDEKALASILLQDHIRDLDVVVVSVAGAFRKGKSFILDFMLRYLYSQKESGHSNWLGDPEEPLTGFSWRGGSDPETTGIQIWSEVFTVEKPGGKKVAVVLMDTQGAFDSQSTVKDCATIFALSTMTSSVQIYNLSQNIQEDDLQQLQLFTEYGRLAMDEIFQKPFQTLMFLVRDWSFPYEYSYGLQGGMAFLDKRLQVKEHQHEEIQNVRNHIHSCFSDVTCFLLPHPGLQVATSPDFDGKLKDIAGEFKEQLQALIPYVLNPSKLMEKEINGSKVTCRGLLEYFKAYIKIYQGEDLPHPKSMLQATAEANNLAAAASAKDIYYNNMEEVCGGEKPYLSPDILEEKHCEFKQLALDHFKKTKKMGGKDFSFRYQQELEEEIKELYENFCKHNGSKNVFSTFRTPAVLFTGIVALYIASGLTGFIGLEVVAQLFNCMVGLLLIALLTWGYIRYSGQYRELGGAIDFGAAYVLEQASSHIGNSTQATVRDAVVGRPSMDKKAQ
UniProt Q5T5Y3: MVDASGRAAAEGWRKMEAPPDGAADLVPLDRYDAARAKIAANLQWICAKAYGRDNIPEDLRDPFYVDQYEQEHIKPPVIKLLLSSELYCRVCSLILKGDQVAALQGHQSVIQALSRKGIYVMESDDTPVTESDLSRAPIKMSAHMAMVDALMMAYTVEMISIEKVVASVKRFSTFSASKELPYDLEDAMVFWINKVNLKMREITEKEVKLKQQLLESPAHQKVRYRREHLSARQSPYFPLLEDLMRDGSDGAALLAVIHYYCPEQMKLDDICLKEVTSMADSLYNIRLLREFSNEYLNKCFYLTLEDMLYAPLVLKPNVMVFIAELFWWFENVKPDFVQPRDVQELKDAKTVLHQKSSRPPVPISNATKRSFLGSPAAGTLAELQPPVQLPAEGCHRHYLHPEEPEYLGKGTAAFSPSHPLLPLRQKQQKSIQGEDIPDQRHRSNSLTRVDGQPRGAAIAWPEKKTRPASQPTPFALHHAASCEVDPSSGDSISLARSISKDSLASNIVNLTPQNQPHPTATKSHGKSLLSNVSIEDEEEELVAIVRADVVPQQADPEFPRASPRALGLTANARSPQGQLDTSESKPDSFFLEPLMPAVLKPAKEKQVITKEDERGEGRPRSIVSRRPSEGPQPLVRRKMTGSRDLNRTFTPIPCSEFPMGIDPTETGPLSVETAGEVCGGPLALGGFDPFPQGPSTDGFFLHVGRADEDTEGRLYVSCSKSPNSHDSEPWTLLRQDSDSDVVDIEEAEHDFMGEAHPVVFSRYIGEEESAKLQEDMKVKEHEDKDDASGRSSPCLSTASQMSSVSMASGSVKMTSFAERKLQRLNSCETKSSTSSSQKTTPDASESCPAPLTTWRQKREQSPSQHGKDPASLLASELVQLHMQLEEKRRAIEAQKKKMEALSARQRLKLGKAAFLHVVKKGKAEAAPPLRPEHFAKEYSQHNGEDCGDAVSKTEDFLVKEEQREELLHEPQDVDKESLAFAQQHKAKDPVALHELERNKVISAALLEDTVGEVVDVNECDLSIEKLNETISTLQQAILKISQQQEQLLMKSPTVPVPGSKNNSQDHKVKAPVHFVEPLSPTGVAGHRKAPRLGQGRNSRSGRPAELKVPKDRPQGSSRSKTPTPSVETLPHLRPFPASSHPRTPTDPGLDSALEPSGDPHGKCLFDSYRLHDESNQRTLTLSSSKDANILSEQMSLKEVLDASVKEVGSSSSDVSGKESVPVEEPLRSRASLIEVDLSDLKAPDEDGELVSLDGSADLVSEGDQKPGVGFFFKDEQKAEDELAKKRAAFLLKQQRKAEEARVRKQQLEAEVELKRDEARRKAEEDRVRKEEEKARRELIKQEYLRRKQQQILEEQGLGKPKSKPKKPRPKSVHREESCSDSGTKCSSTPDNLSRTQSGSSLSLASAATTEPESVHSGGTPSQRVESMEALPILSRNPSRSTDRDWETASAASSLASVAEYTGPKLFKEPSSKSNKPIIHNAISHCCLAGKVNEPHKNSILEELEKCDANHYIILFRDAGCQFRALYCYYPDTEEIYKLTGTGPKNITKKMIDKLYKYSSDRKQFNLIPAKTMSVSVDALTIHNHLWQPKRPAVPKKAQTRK
UniProt Q5T0F9: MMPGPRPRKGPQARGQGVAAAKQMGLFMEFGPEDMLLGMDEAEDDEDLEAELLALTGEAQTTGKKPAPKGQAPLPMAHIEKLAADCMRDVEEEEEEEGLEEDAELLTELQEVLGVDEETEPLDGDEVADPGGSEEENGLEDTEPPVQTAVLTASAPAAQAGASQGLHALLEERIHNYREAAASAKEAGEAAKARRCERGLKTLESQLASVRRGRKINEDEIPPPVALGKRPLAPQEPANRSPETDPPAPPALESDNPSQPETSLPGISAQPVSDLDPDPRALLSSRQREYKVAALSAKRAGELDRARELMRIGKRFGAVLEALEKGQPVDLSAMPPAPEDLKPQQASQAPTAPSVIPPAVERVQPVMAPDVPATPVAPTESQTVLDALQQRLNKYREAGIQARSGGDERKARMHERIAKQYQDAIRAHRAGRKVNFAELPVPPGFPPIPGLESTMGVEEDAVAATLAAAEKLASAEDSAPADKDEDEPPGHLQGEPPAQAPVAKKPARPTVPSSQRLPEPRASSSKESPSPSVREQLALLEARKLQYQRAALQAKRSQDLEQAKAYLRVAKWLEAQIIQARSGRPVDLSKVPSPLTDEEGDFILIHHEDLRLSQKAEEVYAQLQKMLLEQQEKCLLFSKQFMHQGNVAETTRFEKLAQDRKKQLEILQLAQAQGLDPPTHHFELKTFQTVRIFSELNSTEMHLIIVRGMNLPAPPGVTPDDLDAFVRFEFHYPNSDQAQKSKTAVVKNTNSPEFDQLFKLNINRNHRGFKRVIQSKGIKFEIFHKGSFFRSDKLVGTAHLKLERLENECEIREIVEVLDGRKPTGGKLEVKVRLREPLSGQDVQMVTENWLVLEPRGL

Compound in the test: CCc1cnccc1C(=O)Nc1cc2c(cc1F)NC(=O)CC2
In words: melting temperature shift (DMSO Tm minus MBE1-treated Tm) in cellular thermal proteome profiling; higher = less thermal stabilization by MBE1 (negative = stabilized by MBE1). Particulars: A375.

The other results are listed elsewhere or left out. The data scatter; read single values as rough.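 Many melting curves are irregular; where none melted, Tm was taken as 64 °C.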

Regarding FOCAD (UniProt Q5VW36), the melting temperature shift was -0.411 °C (MBE1 concentration: 100 nM) and 0.421 °C (MBE1 concentration: 1 uM).

In the case of RRP12 (UniProt Q5JTH9), the melting temperature shift (MBE1 concentration: 100 nM) is -0.0577 °C and the melting temperature shift (MBE1 concentration: 1 uM) was -0.173 °C.

For the target PDZD11 (UniProt Q5EBL8), the melting temperature shift is -1.99 °C (MBE1 concentration: 100 nM) and -2.11 °C (MBE1 concentration: 1 uM).

With UniProt Q5TZA2, the melting temperature shift (MBE1 concentration: 100 nM) is -0.055 °C and the melting temperature shift (MBE1 concentration: 1 uM) is 1.11 °C.

With MTX3 (UniProt Q5HYI7), the melting temperature shift was -0.601 °C (MBE1 concentration: 100 nM) and 0.122 °C (MBE1 concentration: 1 uM).

For EDC4 (UniProt Q6P2E9), the melting temperature shift is -1.62 °C (MBE1 concentration: 100 nM) and -0.795 °C (MBE1 concentration: 1 uM).

As for ODF2 (UniProt Q5BJF6), the melting temperature shift turned out to be 0.302 °C (MBE1 concentration: 100 nM) and 0.617 °C (MBE1 concentration: 1 uM).

Take RPL7L1 (UniProt Q6DKI1): the melting temperature shift is, setting by setting: (MBE1 concentration: 100 nM) -0.545 °C; (MBE1 concentration: 1 uM) -0.102 °C.

For the target IQSEC1 (UniProt Q6DN90), the melting temperature shift by setting is: (MBE1 concentration: 100 nM) -1.66 °C; (MBE1 concentration: 1 uM) -1.25 °C.

As to RNF220 (UniProt Q5VTB9), the melting temperature shift (MBE1 concentration: 100 nM) is -0.14 °C and the melting temperature shift (MBE1 concentration: 1 uM) is -0.318 °C.

Regarding ODR4 (UniProt Q5SWX8), the melting temperature shift is, setting by setting: (MBE1 concentration: 100 nM) 0.281 °C; (MBE1 concentration: 1 uM) -0.0488 °C.

With C9ORF114 (UniProt Q5T280), the melting temperature shift was -0.858 °C (MBE1 concentration: 100 nM) and -0.414 °C (MBE1 concentration: 1 uM).

For the target UniProt Q5FBB7, the melting temperature shift (MBE1 concentration: 100 nM) was -0.51 °C and the melting temperature shift (MBE1 concentration: 1 uM) was -0.083 °C.

As for DCAF12 (UniProt Q5T6F0), the melting temperature shift (MBE1 concentration: 1 uM) was -0.39 °C.

Regarding LRRC16A (UniProt Q5VZK9), the melting temperature shift (MBE1 concentration: 1 uM) was -0.165 °C.

Consider DCAF6 (UniProt Q58WW2), for which the melting temperature shift reads like this: (MBE1 concentration: 100 nM) -2.58 °C; (MBE1 concentration: 1 uM) -3.54 °C.

Regarding CD276 (UniProt Q5ZPR3), the melting temperature shift (MBE1 concentration: 1 uM) came to 0.644 °C.

For the target HYI (UniProt Q5T013), the melting temperature shift (MBE1 concentration: 1 uM) is -4.11 °C.

BROX (UniProt Q5VW32): the melting temperature shift is, setting by setting: (MBE1 concentration: 100 nM) -0.0141 °C; (MBE1 concentration: 1 uM) -0.47 °C.

In the case of UniProt Q6P1K8, the melting temperature shift is -1.01 °C (MBE1 concentration: 100 nM) and -0.461 °C (MBE1 concentration: 1 uM).

On to UniProt Q5TBA9, for which the melting temperature shift (MBE1 concentration: 1 uM) was -0.0939 °C.

In the case of RABL3 (UniProt Q5HYI8), the melting temperature shift is, setting by setting: (MBE1 concentration: 100 nM) -0.221 °C; (MBE1 concentration: 1 uM) 0.583 °C.

Turning to RETSAT (UniProt Q6NUM9), the melting temperature shift by setting is: (MBE1 concentration: 100 nM) 0.557 °C; (MBE1 concentration: 1 uM) 1.03 °C.

For the target STXBP5 (UniProt Q5T5C0), the melting temperature shift (MBE1 concentration: 100 nM) is -15.1 °C.

On to CIAPIN1 (UniProt Q6FI81), for which the melting temperature shift (MBE1 concentration: 100 nM) worked out at 0.134 °C and the melting temperature shift (MBE1 concentration: 1 uM) came out at 0.14 °C.

Consider COQ5 (UniProt Q5HYK3), for which the melting temperature shift runs as follows: (MBE1 concentration: 100 nM) -0.824 °C; (MBE1 concentration: 1 uM) -0.159 °C.

In the case of REEP3 (UniProt Q6NUK4), the melting temperature shift (MBE1 concentration: 1 uM) was determined as 20.9 °C.

As to UniProt Q68DK2, the melting temperature shift (MBE1 concentration: 100 nM) is 1.22 °C and the melting temperature shift (MBE1 concentration: 1 uM) was -0.275 °C.

As to ANKRD40 (UniProt Q6AI12), the melting temperature shift runs as follows: (MBE1 concentration: 100 nM) -1.16 °C; (MBE1 concentration: 1 uM) 0.113 °C.

On to UniProt Q5TCQ9, for which the melting temperature shift was 1.99 °C (MBE1 concentration: 100 nM) and 0.958 °C (MBE1 concentration: 1 uM).

On to CEP85 (UniProt Q6P2H3), for which the melting temperature shift is -1.84 °C (MBE1 concentration: 100 nM) and -1.38 °C (MBE1 concentration: 1 uM).

As for UHRF1BP1 (UniProt Q6BDS2), the melting temperature shift was -0.543 °C (MBE1 concentration: 100 nM) and 0.147 °C (MBE1 concentration: 1 uM).

Turning to ZMYM1 (UniProt Q5SVZ6), the melting temperature shift is, setting by setting: (MBE1 concentration: 100 nM) -0.0944 °C; (MBE1 concentration: 1 uM) -2.15 °C.

Consider ZCCHC11 (UniProt Q5TAX3), for which the melting temperature shift by setting is: (MBE1 concentration: 100 nM) -0.645 °C; (MBE1 concentration: 1 uM) 0.216 °C.

Turning to MFSD5 (UniProt Q6N075), the melting temperature shift (MBE1 concentration: 100 nM) is -1.48 °C.

Turning to VARS2 (UniProt Q5ST30), the melting temperature shift runs as follows: (MBE1 concentration: 100 nM) 1.47 °C; (MBE1 concentration: 1 uM) 0.476 °C.

Turning to NAA35 (UniProt Q5VZE5), the melting temperature shift stood at 0.348 °C (MBE1 concentration: 100 nM) and 0.305 °C (MBE1 concentration: 1 uM).

In the case of UniProt Q5VUJ6, the melting temperature shift is, setting by setting: (MBE1 concentration: 100 nM) 1.27 °C; (MBE1 concentration: 1 uM) -1.22 °C.

As for TOR1AIP1 (UniProt Q5JTV8), the melting temperature shift is, setting by setting: (MBE1 concentration: 100 nM) -1.41 °C; (MBE1 concentration: 1 uM) -0.604 °C.

With FKBP15 (UniProt Q5T1M5), the melting temperature shift by setting is: (MBE1 concentration: 100 nM) 0.452 °C; (MBE1 concentration: 1 uM) -0.336 °C.

As to ATL3 (UniProt Q6DD88), the melting temperature shift runs as follows: (MBE1 concentration: 100 nM) -0.22 °C; (MBE1 concentration: 1 uM) 0.458 °C.

With C9ORF64 (UniProt Q5T6V5), the melting temperature shift by setting is: (MBE1 concentration: 100 nM) 0.305 °C; (MBE1 concentration: 1 uM) -0.513 °C.

Consider MRM1 (UniProt Q6IN84), for which the melting temperature shift is, setting by setting: (MBE1 concentration: 100 nM) -0.997 °C; (MBE1 concentration: 1 uM) 0.0201 °C.

As for UniProt Q6IQ23, the melting temperature shift is -0.55 °C (MBE1 concentration: 100 nM) and 0.322 °C (MBE1 concentration: 1 uM).

On to CAMSAP1 (UniProt Q5T5Y3), for which the melting temperature shift (MBE1 concentration: 100 nM) is -0.342 °C and the melting temperature shift (MBE1 concentration: 1 uM) was -0.574 °C.

On to ABHD17B (UniProt Q5VST6), for which the melting temperature shift is -1.79 °C (MBE1 concentration: 100 nM) and -2.35 °C (MBE1 concentration: 1 uM).

For the target DNTTIP2 (UniProt Q5QJE6), the melting temperature shift was 0.0427 °C (MBE1 concentration: 100 nM) and 0.275 °C (MBE1 concentration: 1 uM).

In the case of TAPT1 (UniProt Q6NXT6), the melting temperature shift (MBE1 concentration: 100 nM) is -2.27 °C and the melting temperature shift (MBE1 concentration: 1 uM) was -2.34 °C.

In the case of UniProt Q659C4, the melting temperature shift (MBE1 concentration: 100 nM) was -0.0122 °C and the melting temperature shift (MBE1 concentration: 1 uM) came out at 0.891 °C.

DDX59 (UniProt Q5T1V6): the melting temperature shift came to 1.71 °C (MBE1 concentration: 100 nM) and 0.562 °C (MBE1 concentration: 1 uM).

Regarding TPRG1L (UniProt Q5T0D9), the melting temperature shift reads like this: (MBE1 concentration: 100 nM) -0.362 °C; (MBE1 concentration: 1 uM) 0.188 °C.

As for UniProt Q5JPI3, the melting temperature shift runs as follows: (MBE1 concentration: 100 nM) -1.08 °C; (MBE1 concentration: 1 uM) -0.864 °C.

In the case of NCAPH2 (UniProt Q6IBW4), the melting temperature shift is -0.659 °C (MBE1 concentration: 100 nM) and -0.358 °C (MBE1 concentration: 1 uM).

For the target DHX57 (UniProt Q6P158), the melting temperature shift is, setting by setting: (MBE1 concentration: 100 nM) -0.387 °C; (MBE1 concentration: 1 uM) 0.385 °C.

As to SNX30 (UniProt Q5VWJ9), the melting temperature shift is, setting by setting: (MBE1 concentration: 100 nM) 0.311 °C; (MBE1 concentration: 1 uM) -0.25 °C.

For the target CC2D1B (UniProt Q5T0F9), the melting temperature shift by setting is: (MBE1 concentration: 100 nM) 0.898 °C; (MBE1 concentration: 1 uM) 0.269 °C.

Turning to RPUSD3 (UniProt Q6P087), the melting temperature shift was determined as 0.177 °C (MBE1 concentration: 100 nM) and 0.705 °C (MBE1 concentration: 1 uM).

Consider CPSF3L (UniProt Q5TA45), for which the melting temperature shift was -0.208 °C (MBE1 concentration: 100 nM) and -0.275 °C (MBE1 concentration: 1 uM).

As to TTC38 (UniProt Q5R3I4), the melting temperature shift runs as follows: (MBE1 concentration: 100 nM) 0.672 °C; (MBE1 concentration: 1 uM) 0.464 °C.

Consider THOC7 (UniProt Q6I9Y2), for which the melting temperature shift is, setting by setting: (MBE1 concentration: 100 nM) 0.611 °C; (MBE1 concentration: 1 uM) -0.147 °C.

As for PPP4R3A (UniProt Q6IN85), the melting temperature shift is -0.595 °C (MBE1 concentration: 100 nM) and 0.366 °C (MBE1 concentration: 1 uM).

In the case of CDKAL1 (UniProt Q5VV42), the melting temperature shift is, setting by setting: (MBE1 concentration: 100 nM) 0.717 °C; (MBE1 concentration: 1 uM) 0.287 °C.

In the case of KIAA1217 (UniProt Q5T5P2), the melting temperature shift was -0.873 °C (MBE1 concentration: 100 nM) and -0.365 °C (MBE1 concentration: 1 uM).

As to UniProt Q6P6B7, the melting temperature shift is, setting by setting: (MBE1 concentration: 100 nM) 4.65 °C; (MBE1 concentration: 1 uM) 0.403 °C.

With WLS (UniProt Q5T9L3), the melting temperature shift worked out at 2.11 °C (MBE1 concentration: 100 nM) and 1.88 °C (MBE1 concentration: 1 uM).

Turning to UniProt Q5SXM2, the melting temperature shift is -0.443 °C (MBE1 concentration: 100 nM) and -0.742 °C (MBE1 concentration: 1 uM).

As to PDE4DIP (UniProt Q5VU43), the melting temperature shift is, setting by setting: (MBE1 concentration: 100 nM) 0.287 °C; (MBE1 concentration: 1 uM) 0.55 °C.

Consider UniProt Q5T2N8, for which the melting temperature shift is -0.742 °C (MBE1 concentration: 100 nM) and -0.287 °C (MBE1 concentration: 1 uM).

For UniProt Q5TAQ9, the melting temperature shift is 0.488 °C (MBE1 concentration: 100 nM) and -0.397 °C (MBE1 concentration: 1 uM).

In the case of LYRM7 (UniProt Q5U5X0), the melting temperature shift turned out to be 0.0366 °C (MBE1 concentration: 100 nM) and 0.629 °C (MBE1 concentration: 1 uM).
